Laboratory results: paper PMC4649702
No constants are given. Whether binding was seen depends on the method and setting. In cells and extracts the contact can be indirect. Some binding calls cover weakened binding; strength is not graded here. For some assays here: Sequences can lack the tags named with a protein.

Protein sequences, listed by entry. Tags and fused reporters are not part of them.
UniProt P19838: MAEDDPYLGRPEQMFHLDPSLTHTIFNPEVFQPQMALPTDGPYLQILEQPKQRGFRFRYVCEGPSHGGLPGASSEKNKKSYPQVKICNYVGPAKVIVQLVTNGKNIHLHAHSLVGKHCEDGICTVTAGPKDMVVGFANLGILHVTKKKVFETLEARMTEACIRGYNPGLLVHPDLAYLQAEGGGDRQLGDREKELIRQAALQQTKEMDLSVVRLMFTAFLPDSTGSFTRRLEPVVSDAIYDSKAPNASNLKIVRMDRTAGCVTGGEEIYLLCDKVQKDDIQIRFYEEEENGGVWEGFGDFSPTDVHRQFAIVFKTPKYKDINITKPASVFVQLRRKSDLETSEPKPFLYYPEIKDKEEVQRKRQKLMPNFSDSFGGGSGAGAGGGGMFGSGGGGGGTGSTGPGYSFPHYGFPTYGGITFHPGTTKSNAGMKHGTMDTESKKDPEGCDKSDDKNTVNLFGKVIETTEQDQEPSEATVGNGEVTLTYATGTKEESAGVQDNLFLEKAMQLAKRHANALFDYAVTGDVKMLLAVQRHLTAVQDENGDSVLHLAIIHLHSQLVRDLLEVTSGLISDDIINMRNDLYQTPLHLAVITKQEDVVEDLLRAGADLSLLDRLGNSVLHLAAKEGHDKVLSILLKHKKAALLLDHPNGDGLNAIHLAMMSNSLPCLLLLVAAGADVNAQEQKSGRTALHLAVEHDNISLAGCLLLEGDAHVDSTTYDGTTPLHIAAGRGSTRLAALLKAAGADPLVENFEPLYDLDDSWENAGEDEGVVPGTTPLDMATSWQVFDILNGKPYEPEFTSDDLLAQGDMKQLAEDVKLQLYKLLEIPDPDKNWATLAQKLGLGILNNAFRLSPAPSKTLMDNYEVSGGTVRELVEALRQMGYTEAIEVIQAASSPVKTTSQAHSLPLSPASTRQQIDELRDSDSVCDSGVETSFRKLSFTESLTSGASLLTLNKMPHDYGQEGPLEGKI
UniProt P0C796: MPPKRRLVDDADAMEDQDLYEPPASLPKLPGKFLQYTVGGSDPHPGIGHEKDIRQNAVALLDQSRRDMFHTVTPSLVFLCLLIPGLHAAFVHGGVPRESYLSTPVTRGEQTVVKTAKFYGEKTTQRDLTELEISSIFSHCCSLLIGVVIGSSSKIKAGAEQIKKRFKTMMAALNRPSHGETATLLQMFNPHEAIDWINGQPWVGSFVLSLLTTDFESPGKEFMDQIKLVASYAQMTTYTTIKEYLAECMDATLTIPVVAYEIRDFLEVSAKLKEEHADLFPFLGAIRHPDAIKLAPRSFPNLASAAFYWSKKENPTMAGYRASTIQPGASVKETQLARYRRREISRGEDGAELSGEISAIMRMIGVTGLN

Assays:
[1] = molecular target: T1, FLAG-tagged NF-κB2 (human) (UniProt Q00653); assay: co-IP; lysates of separately transfected 293T cells (20 mM Tris-HCl pH 7.4, 150 mM NaCl, 1% Triton-X, 1 mM EDTA, protease inhibitors) mixed for 30 min at 4°C; immunoprecipitated with anti-FLAG M2 on Protein G Dynabeads; blotted with anti-HA and anti-FLAG
T1 sequence: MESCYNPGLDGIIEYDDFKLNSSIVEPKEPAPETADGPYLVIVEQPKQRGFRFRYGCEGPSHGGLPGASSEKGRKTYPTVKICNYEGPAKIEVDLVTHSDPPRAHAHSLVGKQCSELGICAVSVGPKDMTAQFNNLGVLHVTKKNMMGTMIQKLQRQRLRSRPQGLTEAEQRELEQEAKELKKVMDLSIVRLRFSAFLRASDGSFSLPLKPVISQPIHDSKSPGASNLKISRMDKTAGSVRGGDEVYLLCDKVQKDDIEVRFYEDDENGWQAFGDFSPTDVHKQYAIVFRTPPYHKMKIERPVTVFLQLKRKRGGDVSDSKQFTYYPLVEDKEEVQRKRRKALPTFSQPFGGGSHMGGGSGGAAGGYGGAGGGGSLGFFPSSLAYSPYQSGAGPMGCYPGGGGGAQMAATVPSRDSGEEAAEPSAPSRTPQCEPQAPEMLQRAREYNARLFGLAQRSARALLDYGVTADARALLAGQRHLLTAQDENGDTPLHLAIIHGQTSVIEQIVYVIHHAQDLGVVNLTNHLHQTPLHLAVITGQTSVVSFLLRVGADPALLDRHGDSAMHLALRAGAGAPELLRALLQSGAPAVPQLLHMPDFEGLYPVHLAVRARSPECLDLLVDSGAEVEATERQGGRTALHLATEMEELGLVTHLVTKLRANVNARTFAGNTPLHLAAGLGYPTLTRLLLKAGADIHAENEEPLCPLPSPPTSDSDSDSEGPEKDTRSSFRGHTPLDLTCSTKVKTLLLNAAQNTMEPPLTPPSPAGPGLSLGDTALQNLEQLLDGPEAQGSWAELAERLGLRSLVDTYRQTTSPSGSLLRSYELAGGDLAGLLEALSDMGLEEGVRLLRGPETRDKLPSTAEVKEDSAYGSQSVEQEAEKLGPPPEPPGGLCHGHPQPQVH

[2] = molecular target: FLAG-tagged NF-κB1 (human) (UniProt P19838); assay: as above

“HA-tagged BDV-N (Borna disease virus nucleoprotein) (from UniProt P0C796 1-370)” was tested, and the binding [1] was “no binding” and the binding [2] was “binds”.
